Assay results taken from the supplement of paper PMC10849652.
This is one part of the list.

By UniProt entry, the sequences of proteins in these tests, tags left out. Where a name states a change or a piece, a line headed by the entry shows the natural chain unless it says otherwise.
UniProt P23743: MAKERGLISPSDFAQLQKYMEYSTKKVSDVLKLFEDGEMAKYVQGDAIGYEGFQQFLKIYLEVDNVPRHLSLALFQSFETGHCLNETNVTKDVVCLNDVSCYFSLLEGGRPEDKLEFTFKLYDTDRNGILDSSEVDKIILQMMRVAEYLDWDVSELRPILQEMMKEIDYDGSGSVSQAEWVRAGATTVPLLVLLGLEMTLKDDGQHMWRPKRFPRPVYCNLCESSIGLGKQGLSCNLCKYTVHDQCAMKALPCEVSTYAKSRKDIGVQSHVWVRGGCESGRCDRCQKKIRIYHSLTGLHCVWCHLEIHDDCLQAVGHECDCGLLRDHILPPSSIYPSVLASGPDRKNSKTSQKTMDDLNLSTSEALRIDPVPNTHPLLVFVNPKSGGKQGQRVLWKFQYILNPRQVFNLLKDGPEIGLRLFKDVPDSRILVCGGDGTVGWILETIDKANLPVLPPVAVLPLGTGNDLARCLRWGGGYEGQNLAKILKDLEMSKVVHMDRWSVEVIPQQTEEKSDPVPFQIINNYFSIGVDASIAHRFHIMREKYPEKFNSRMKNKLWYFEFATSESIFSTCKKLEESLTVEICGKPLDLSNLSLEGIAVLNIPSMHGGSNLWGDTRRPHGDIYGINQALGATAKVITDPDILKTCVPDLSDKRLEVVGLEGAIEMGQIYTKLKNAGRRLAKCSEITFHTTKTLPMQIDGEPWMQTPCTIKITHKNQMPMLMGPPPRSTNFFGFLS
UniProt O00429, whole entry, looked up: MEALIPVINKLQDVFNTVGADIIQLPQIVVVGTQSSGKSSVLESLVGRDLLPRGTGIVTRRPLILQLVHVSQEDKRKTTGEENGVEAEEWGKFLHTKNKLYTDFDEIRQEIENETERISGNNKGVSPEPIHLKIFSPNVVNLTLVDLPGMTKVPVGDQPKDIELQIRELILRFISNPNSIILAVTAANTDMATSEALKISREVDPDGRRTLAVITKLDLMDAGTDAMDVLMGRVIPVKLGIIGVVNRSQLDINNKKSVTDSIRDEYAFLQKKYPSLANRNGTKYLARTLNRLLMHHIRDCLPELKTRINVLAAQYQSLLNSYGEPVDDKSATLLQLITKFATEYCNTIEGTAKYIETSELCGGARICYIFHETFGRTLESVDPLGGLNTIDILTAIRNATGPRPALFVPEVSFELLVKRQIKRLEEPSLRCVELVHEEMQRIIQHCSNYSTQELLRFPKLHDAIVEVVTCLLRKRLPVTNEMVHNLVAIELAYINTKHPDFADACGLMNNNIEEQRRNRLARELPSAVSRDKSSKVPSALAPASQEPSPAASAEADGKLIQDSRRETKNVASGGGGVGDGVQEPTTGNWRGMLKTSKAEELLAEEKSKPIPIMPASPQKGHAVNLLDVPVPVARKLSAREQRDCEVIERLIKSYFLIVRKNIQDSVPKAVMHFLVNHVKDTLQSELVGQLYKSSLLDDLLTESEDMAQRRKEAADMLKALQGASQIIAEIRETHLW
UniProt Q14689: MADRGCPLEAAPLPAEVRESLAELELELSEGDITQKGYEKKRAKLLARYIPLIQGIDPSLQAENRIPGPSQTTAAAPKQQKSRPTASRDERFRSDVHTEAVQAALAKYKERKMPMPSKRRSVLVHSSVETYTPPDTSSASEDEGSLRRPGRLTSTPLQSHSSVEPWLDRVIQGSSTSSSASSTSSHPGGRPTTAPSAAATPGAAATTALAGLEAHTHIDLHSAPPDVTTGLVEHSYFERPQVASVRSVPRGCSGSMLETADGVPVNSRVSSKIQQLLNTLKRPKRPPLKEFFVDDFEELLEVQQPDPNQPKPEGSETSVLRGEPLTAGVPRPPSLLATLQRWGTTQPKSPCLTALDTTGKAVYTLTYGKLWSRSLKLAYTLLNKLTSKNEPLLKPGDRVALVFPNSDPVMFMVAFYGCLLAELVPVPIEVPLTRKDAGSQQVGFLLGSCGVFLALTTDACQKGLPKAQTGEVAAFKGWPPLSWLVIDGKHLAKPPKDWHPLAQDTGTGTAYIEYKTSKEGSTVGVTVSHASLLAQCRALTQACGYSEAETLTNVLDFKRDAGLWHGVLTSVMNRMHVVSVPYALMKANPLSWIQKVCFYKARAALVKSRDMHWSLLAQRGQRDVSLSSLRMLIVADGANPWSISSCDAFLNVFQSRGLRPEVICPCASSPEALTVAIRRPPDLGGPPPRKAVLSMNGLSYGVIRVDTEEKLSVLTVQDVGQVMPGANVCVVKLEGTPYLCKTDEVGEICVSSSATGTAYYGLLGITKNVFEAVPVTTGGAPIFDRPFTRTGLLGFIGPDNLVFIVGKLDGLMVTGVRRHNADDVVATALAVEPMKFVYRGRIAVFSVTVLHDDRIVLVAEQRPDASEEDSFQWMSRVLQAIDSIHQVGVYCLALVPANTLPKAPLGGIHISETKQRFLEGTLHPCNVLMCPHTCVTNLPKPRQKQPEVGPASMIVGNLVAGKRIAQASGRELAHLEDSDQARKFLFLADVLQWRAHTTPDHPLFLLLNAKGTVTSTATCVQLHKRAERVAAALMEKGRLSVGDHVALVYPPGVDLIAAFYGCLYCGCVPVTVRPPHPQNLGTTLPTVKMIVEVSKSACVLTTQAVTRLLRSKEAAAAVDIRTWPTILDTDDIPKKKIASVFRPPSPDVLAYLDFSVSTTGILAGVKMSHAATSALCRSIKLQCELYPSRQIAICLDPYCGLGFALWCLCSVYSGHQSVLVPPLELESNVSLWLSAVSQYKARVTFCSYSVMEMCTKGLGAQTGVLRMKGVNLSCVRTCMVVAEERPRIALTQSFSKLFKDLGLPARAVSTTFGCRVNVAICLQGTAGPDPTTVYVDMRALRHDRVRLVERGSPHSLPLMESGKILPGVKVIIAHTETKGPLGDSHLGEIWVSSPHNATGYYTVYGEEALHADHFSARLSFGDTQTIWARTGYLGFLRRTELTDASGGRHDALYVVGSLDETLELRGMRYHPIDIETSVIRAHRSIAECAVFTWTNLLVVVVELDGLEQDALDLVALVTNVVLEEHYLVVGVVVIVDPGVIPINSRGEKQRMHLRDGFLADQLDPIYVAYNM
UniProt Q15398: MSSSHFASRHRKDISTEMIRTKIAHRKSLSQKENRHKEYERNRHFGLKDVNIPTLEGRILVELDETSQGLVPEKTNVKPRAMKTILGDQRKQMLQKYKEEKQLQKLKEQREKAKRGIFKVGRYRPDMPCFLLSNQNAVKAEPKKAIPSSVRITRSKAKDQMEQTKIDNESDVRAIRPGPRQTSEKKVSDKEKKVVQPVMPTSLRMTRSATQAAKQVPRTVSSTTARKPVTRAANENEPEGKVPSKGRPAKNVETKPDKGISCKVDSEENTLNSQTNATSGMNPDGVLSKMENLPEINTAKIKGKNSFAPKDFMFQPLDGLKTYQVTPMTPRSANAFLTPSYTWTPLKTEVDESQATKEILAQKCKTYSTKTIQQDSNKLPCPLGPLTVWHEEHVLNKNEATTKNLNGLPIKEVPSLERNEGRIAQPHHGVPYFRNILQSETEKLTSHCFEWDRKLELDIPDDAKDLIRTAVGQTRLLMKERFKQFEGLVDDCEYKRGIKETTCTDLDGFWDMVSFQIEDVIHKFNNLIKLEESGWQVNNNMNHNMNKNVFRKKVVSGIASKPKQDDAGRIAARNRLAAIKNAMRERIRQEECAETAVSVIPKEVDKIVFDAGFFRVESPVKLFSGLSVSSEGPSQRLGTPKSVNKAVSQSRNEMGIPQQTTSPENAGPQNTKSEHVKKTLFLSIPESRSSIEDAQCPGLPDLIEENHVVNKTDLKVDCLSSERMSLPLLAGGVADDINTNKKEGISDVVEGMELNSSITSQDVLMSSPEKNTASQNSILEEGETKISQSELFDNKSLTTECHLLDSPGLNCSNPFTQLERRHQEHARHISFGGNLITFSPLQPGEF
UniProt Q9Y394: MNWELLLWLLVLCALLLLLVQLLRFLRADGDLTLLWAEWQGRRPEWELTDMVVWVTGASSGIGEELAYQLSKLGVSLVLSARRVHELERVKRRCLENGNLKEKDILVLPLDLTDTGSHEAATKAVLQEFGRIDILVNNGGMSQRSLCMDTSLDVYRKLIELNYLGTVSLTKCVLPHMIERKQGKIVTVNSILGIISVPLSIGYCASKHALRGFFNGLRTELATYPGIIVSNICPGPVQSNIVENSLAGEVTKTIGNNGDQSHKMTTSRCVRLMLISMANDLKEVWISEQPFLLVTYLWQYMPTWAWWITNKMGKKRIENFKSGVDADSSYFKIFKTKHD
UniProt Q8WYQ5: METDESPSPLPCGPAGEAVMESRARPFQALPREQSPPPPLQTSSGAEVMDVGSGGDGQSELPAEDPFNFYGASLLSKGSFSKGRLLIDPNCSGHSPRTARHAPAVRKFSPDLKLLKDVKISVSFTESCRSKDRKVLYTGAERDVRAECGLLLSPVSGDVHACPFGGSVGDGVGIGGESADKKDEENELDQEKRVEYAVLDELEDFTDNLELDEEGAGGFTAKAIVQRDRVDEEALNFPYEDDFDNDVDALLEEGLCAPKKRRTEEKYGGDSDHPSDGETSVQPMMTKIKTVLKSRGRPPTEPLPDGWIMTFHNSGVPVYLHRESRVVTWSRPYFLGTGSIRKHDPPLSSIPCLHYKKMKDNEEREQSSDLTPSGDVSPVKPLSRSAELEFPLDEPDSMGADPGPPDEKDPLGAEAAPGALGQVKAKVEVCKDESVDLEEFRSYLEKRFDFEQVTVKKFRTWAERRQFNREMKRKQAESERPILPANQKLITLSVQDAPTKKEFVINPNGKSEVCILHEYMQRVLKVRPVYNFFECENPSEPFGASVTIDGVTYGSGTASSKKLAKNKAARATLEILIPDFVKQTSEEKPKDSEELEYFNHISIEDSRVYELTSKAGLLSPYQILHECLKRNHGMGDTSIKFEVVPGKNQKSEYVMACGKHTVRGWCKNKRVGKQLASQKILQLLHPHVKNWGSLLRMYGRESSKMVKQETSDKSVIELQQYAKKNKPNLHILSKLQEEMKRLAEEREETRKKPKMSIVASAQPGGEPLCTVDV
UniProt Q86XP1: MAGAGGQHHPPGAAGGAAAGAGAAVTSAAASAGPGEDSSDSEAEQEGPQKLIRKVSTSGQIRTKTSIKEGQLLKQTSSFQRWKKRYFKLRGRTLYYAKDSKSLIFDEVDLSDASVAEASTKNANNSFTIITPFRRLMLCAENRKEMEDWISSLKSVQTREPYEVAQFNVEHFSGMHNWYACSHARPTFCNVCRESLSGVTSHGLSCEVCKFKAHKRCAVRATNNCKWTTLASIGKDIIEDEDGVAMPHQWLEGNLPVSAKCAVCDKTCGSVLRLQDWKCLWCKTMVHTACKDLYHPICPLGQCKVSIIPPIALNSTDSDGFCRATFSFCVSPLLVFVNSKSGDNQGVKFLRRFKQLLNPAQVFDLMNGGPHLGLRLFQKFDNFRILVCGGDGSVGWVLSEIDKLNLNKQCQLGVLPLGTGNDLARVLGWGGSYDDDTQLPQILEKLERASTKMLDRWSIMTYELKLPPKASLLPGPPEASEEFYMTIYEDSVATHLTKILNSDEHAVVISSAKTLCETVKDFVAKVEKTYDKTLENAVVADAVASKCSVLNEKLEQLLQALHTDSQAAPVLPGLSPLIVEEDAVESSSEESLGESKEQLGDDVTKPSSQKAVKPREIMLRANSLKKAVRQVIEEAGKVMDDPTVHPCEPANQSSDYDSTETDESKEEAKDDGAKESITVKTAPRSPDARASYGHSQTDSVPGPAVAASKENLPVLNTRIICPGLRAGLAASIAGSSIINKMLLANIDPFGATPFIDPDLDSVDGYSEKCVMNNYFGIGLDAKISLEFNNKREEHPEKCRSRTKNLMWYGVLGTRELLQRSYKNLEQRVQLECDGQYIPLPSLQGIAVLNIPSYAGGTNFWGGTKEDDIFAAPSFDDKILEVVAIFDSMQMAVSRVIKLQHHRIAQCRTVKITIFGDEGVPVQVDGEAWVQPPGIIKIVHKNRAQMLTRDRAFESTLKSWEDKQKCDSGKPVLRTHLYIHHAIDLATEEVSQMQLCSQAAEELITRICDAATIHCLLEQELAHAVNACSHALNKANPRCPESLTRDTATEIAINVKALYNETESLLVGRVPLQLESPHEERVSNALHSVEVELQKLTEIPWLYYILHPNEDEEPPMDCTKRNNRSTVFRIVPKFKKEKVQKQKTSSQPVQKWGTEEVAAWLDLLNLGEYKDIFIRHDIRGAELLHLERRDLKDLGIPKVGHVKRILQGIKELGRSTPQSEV

Tests used:
Experiment in all cases: log2 fold change, soluble protein after heating vs DMSO (PISA); higher = thermal stabilisation; K562 lysate, 10 uM; active = over 0.2 and 3.5 SD of the protein, either way, in both replicates (recomputed)
[1] = compound: C1=CC=C(C=C1)[C@H](COC2=CC3=C(C=C2)NC(=O)N3)NC(=O)C4=CC=CN(C4=O)CC5=CC(=C(C=C5)F)F
How it was run: (§1)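 Log-two fold change in thermal stability relative to solvent controls is reported from duplicates. For each sample, crude K562 extract from dounce-homogenised pellets in PBS pH 7.4 with 1 mM MgCl2, at 1 mg/mL protein, was treated with 10 μM compound for 30 min. Aliquots heated for 3 min across 48°C-58°C were pooled, brought to 0.5% NP-40 at 4°C and cleared at 21,000xg for 90 min. The supernatant was quantified by TMTpro 16plex LC-MS/MS with channel sums equalised.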

[2] = compound: CC1=C(SC2=C1C(=N[C@H](C3=NN=C(N32)C)CC(=O)N)C4=CC=C(C=C4)Cl)C
How it was run: as §1

[3] = compound: CC1=C2C(=CC=C1)N=C(N(C2=O)C3=CC=CC=C3C)CN4C=NC5=C(N=CN=C54)N
How it was run: as §1

[4] = compound: Cc1sc2c(c1C)C(c1ccc(Cl)cc1)=N[C@@H](CC(=O)OC(C)(C)C)c1nnc(C)n1-2
How it was run: as §1

[5] = compound: c1ccc([C@@H]2C[C@H]2NC2CCNCC2)cc1
How it was run: as §1

Measured: log2 fold change

DGKA (UniProt P23743)
inactive: [1] -0.21 | [2] -0.367 | [3] 0.018 | [4] -0.023 | [5] -0.022

DNM1L isoform 2 (UniProt O00429)
inactive: [1] -0.075 | [2] -0.129 | [3] -0.043 | [4] -0.107 | [5] 0.059

DNAJC7 (UniProt Q99615)
inactive: [1] 0.076 | [2] -0.057 | [3] 0.028 | [4] 0.044 | [5] -0.035

DNAJC6 isoform 2 (UniProt O75061)
inactive: [1] 0.092 | [2] -0.026 | [3] 0.011 | [4] -0.012 | [5] -0.071

DIP2A (UniProt Q14689)
inactive: [1] -0.029 | [2] 0.006 | [3] 0.039 | [4] 0.021 | [5] -0.034

DLGAP5 (UniProt Q15398)
inactive: [1] 0.029 | [2] -0.006 | [3] 0.009 | [4] -0.036 | [5] -0.015

DHRS7 (UniProt Q9Y394)
inactive: [1] 0.036 | [2] -0.054 | [3] -0.015 | [4] 0.008 | [5] -0.001

DGCR8 (UniProt Q8WYQ5)
inactive: [1] -0.05 | [2] 0.063 | [3] 0.004 | [4] 0.029 | [5] 0.017

DGKH (UniProt Q86XP1)
inactive: [1] -0.307 | [2] -0.216 | [3] 0.107 | [4] -0.039 | [5] 0.019
